According to PMC10086742:
No constants are given. Whether binding was seen depends on the method and setting. Binding seen in cells or lysates may run through a third protein. Some entries that bind do so weakly or less than the wild type.

Chains of the proteins cited; added tags and fusions are not shown. Residues count along the entry.
UniProt P40763: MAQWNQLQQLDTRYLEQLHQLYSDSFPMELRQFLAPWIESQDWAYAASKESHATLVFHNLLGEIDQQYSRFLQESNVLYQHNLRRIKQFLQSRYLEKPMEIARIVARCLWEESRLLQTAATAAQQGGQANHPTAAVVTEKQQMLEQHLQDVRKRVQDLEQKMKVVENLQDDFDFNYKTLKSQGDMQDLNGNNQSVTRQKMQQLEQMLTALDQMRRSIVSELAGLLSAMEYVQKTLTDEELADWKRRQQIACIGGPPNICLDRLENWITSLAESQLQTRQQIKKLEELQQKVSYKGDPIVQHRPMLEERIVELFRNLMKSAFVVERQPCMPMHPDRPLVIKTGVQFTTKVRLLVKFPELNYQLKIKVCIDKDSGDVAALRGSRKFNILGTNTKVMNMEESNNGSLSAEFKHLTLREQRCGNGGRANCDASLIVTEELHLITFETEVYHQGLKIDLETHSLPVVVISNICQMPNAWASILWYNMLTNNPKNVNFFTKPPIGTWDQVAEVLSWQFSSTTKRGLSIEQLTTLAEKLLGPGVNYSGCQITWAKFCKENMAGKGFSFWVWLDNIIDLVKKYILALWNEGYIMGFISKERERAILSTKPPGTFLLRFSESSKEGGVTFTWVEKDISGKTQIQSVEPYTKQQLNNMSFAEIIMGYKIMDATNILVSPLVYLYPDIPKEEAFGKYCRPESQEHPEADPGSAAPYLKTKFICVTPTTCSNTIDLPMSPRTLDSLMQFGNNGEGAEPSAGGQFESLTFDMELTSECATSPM
UniProt Q9NZQ7, residues 19-290: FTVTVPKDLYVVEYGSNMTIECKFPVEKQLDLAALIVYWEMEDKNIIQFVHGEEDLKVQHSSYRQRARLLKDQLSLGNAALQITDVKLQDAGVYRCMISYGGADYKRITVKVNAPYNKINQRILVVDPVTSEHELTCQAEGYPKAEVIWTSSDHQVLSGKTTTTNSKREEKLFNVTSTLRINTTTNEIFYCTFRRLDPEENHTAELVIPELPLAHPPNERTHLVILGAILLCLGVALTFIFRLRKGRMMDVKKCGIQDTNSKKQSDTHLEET

Biological target: p-Y705-Stat3 (Stat3 phosphorylated on Tyr705) (human (endogenous in peripheral blood neutrophils)) (UniProt P40763)
Test: co-IP; lysates of neutrophils from healthy subjects and septic patients in IP buffer with protease inhibitors; anti-p-Y705-Stat3 antibody 12 hours at 4°C, Protein A/G agarose 2 hours; western blot with anti-PD-L1

In the case of “programmed death ligand 1 (PD-L1) (from UniProt Q9NZQ7 19-290)”, the binding is reported as “binds”.
